Measurements reported in US20220409751A1 (NORTHSTAR MEDICAL TECHNOLOGIES, published 2022).
Positions count from the first letter of the chain named. No constants are given. Whether binding was seen depends on the method and setting. Some results given as binding are weak or reduced against the parent protein; the word gives no strength.

Amino acid sequences for entries named in this document (tags omitted). Residues count along the entry.
UniProt Q03405, residues 23-305: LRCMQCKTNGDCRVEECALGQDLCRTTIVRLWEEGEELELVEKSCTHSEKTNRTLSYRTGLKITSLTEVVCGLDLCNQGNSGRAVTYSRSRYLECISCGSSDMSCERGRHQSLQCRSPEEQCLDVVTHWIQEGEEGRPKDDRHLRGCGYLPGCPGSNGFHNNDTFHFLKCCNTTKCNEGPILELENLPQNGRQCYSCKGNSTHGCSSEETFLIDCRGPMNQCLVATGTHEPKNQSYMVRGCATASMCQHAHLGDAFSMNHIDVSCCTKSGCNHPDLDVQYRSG

B1: HE ™ ATN-1 (antibody, IgG1, V domains shown)
VH: EVQLVQSGPEVVKTGASVKISCKASGYSFTSYYMHWVKQAHGQGLEWIGEINPYNGGASYNQKIKGRATFTVDTSTRTAYMEFSSLRSEDTAVYYCARSIYGHSVLDYWGQGTLVTVSS
VL: DVVMTQSPLSLSVTIGEPASISCRSSQSLLDSDGKTYLNWLLQKPGQSPKRLIYLVSKRDSGVPDRFSGSGSGTDFTLKISRVEAEDVGVYYCWQGTHFPLTFGQGTKLEIK
notes: V regions cloned into transient expression vectors with human gamma-1 and kappa constant region modules (IgG1, kappa); made in HEK293E cells
B2: HE ™ ATN-4 (renamed MNPR-101) (antibody, human IgG1, kappa, V domains shown)
VH: B1 VH with V12K, K38R, K65Q, R77S
VL: DVVMTQSPLSLSVTIGEPASISCRSSQSLLDSDGKTYLNWLLQKPGQSPQRLIYLVSKRDSGVPDRFSGSGSGTDFTLKISRVEAEDVGVYYCWQGTHFPLTFGQGTKLEIKR
notes: IgG1 kappa; In the Biacore assay the transiently expressed (HEK293E), unconjugated antibody was used; also called mAb MNPR-101; humanized mAb MNPR-101
B3: HE ™ ATN-3 (antibody, IgG1, V domains shown)
VH: B1 VH with V12K, K38R, K65Q, R77S
VL: B1 VL
notes: Human gamma-1 and kappa constant region modules (IgG1, kappa); made in HEK293E cells
B4: HE ™ ATN-2 (antibody, IgG1, V domains shown)
VH: B1 VH
VL: B1 VL with K50Q
notes: as for B3

Each binder was assayed against soluble uPAR (suPAR) (UniProt Q03405) (assay: SPR (Biacore 2000), capture format).

binding	Binder
binds	B1
binds	B2
binds	B3
binds	B4
